# Results published in article PMC8901487.
# Chains of the proteins cited; added tags and fusions are not shown.
# UniProt Q9UKB1: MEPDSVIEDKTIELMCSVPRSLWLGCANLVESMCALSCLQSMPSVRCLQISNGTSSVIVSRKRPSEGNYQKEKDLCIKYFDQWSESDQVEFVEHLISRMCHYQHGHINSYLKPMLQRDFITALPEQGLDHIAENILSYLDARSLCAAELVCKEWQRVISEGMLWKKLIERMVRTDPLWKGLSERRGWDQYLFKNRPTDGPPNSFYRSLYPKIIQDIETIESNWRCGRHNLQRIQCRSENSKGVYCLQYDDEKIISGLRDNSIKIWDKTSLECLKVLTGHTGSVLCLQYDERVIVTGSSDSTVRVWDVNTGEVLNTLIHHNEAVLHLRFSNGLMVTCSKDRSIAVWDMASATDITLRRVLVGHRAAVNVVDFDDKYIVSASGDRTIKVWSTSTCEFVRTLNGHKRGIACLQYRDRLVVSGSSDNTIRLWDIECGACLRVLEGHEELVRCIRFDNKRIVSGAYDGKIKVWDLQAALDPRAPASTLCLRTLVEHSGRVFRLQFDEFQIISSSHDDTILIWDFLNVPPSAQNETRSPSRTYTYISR
# No constants are given. Whether binding was seen depends on the method and setting. Binding seen in cells or lysates may run through a third protein. Some binding calls cover weakened binding; strength is not graded here. For some of these results: Tags and fused reporters may be left off the sequences shown.
# Key:
# [1] = target: HA-tagged β-TrCP (wild type, full length) (human (cDNA of 293T cells)) (UniProt Q9UKB1); assay: co-IP; 293T cells co-transfected with full length FLAG-tagged TRIM67 and wild type or truncated HA-β-TrCP; lysates precipitated with anti-HA antibodies and protein A/G plus-gel, five washes; blots for FLAG and HA
# [2] = target: FLAG-tagged TRIM67 (wild type, full length) (human) (UniProt Q6ZTA4); assay: co-IP; 293T cells transfected with FLAG-tagged TRIM67 (wild type or mutant), alone or with HA-β-TrCP; lysates precipitated with anti-FLAG affinity gel; blots for FLAG and β-TrCP or HA; for the mutants cells with or without TNFα for 30 min
# [3] = target: T1, FLAG-tagged TRIM67 S110/114A (human) (UniProt Q6ZTA4); assay: as above
# T1 sequence: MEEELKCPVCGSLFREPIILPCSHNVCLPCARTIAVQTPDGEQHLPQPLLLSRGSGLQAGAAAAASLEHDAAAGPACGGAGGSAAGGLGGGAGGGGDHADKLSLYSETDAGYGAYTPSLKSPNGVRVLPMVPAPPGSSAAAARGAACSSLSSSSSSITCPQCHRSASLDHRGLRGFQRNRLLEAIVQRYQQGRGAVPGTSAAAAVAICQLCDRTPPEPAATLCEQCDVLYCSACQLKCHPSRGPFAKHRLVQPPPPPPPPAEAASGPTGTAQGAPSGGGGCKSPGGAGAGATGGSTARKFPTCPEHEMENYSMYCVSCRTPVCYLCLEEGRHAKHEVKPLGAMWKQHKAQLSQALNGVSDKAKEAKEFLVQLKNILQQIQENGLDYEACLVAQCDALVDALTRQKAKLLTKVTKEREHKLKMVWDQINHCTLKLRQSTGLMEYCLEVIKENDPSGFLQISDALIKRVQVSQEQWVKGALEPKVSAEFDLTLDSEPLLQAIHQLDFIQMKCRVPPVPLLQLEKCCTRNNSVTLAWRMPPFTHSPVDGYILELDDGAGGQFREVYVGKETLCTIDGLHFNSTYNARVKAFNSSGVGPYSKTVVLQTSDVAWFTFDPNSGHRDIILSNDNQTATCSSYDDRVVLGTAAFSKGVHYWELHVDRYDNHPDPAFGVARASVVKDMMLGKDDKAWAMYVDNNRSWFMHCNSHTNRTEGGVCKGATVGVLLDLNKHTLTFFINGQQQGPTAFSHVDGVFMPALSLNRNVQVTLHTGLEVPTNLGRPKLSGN
binding [1],binding [2],binding [3],Substance
binds,,,"FLAG-tagged TRIM67 (wild type, full length) (from UniProt Q6ZTA4 1-783)"
,binds,,"HA-tagged β-TrCP (wild type, full length) (from UniProt Q9UKB1 1-542)"
,binds,no binding,endogenous β-TrCP (from UniProt Q9UKB1 1-542)
